Literature values in patent publication US7687484B2, “Transporter enhanced corticosteroid activity” (priority 2006, dated 2010).
At least one structure is not confirmed: it was looked up by name or label, or the drawing left a doubt.

Tests used:
[1] = molecular target: T1, Corticosteroid Binding Globulin (CBG), transcortin (Homo sapiens, UniProt P08185); details: cited from earlier work; for Class: CBG binding activity class; for Log 1/K: CBG binding affinity, literature data;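 for Class: class 1 means high CBG binding and 2 intermediate and 3 low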
T1 sequence (P08185 23-405): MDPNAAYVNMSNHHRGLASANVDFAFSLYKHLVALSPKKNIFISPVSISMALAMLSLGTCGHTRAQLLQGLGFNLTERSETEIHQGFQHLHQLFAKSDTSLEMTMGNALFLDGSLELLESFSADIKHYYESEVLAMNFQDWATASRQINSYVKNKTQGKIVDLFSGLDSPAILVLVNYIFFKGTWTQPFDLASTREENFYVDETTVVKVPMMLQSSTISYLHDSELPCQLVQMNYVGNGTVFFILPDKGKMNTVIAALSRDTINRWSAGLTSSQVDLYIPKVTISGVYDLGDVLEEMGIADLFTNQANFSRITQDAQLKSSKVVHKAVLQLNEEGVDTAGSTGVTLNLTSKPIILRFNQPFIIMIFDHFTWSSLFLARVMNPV

[2] = molecular target: T2, glucocorticoid receptor (Homo sapiens, UniProt P04150); details: relative to dexamethasone = 100; average of all values if multiple available; cited from earlier work
T2 sequence (P04150 1-777): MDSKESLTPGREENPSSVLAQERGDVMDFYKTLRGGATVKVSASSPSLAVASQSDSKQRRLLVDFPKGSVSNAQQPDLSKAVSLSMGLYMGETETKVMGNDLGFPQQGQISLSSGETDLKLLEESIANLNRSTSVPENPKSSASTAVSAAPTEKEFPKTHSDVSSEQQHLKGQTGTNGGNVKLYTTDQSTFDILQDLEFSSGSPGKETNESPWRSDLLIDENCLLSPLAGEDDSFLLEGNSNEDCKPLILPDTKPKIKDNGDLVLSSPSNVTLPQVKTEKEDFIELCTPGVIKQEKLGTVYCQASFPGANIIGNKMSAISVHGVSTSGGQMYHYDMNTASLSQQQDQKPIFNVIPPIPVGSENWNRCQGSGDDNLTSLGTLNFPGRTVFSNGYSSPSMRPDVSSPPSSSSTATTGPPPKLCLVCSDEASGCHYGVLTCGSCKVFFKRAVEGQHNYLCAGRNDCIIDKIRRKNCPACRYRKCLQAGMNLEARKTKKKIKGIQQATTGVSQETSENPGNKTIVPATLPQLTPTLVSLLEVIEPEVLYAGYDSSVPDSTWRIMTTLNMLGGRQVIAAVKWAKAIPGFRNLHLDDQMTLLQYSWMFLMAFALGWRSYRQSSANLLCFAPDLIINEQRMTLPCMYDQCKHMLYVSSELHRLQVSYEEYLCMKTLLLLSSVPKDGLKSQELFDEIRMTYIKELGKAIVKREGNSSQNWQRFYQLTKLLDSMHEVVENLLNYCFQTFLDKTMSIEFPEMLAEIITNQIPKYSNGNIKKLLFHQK

| Compound | Class [1] | Log 1/K [1] | rBA (relative receptor binding affinity) [2] |
| --- | --- | --- | --- |
| C[C@]12CC[C@@H]3c4ccc(O)cc4CC[C@H]3[C@@H]1CCC2=O [estrone] | 3 | −5.000 | – |
| CC1(C)O[C@@H]2C[C@H]3[C@@H]4CCC5=CC(=O)C=C[C@]5(C)[C@@]4(F)[C@@H](O)C[C@]3(C)[C@]2(C(=O)CO)O1 [Triamcinolone acetonide] | – | – | 270 |
| C[C@]12CC[C@@H]3c4ccc(O)cc4CC[C@H]3[C@@H]1CC[C@@H]2O [estradiol] | 3 | −5.000 | – |
